These are yes or no findings as the source states them, for the method shown. In cells and extracts the contact can be indirect. Here binding means that the protein was enriched with, or labelled near, the bait; the list need not be complete.
Molecular target: MTHFR with threonine 34 changed to alanine, C-terminally Flag-tagged (MTHFR_(T34A)) (human) (UniProt P42898)
Assay: affinity purification with mass spectrometry

The chains behind the UniProt entries cited, without tags or fusion partners.
UniProt P53396: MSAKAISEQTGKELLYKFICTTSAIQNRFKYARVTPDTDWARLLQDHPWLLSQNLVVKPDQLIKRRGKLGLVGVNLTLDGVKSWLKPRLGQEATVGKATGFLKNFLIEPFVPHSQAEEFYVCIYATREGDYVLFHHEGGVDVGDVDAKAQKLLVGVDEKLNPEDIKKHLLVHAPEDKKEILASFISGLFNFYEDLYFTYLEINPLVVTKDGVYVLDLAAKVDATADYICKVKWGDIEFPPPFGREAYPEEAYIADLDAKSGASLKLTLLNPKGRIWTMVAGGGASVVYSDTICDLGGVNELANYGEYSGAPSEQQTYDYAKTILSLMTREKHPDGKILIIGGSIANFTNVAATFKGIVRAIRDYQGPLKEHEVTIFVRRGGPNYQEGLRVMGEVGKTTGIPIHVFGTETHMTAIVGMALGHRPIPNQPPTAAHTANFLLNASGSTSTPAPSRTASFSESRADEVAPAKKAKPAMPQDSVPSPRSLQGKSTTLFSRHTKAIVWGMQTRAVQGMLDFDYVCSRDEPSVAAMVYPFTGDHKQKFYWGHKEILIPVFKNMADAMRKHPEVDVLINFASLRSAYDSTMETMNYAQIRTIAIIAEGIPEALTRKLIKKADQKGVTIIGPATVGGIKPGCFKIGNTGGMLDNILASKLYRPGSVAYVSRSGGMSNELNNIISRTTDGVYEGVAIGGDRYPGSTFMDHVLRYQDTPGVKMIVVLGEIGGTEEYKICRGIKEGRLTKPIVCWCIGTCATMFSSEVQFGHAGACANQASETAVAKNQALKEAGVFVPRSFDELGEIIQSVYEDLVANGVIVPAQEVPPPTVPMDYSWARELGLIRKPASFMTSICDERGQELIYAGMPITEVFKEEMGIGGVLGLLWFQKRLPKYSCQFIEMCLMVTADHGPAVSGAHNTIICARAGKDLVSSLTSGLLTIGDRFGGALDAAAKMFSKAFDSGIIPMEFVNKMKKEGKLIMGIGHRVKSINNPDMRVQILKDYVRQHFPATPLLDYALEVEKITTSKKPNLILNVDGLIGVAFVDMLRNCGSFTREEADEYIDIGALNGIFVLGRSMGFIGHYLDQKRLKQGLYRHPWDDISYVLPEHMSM

ACLY (from UniProt P53396 1-1101) (enzyme)
binding: binds

Reference: paper doi:10.1101/2024.08.22.609157
